{"source": "PubChem BioAssay AID624291", "about": "(National Center for Advancing Translational Sciences (NCATS), 2012)", "note": "Screen size: about 350,000 compounds; about 220 (0.063%) were called active. The inconclusive results got no clear call from the source; some entries with a clear call stand among them for comparison. Calls follow the shape of the dose curve; as a rule, active = well fitted activation curve with a large enough effect; inconclusive = small, poorly fitted or top-dose-only effect; inactive = no such curve, though single readings can be large or run the other way. Where the call is inconclusive, the potency comes from a doubtful curve fit. Potency is read from the fitted curve at half-maximal effect.", "data": [{"experiment": "qHTS for Activators of Integrin-Mediated Alleviation for Muscular Dystrophy; also: nearly all actives have a fitted effect of over 60% in size;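 as to activation: 100% = response of the positive control SU9516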", "settings": "alpha7betagal myoblasts, beta-gal FDG fluorescence, 48 h; activation: at 38.3 µM (top of the series)", "how_it_was_run": "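Alpha7betagal+/- myoblasts (passage 13) were plated 16-24 hr, then exposed to compounds (1:260 dilution of DMSO stock) for 48 hours at 37C. After MPER lysis, β-galactosidase reporter activity was read as FDG fluorescence (ex 480/em 540) after 30 minutes.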", "values": [{"smiles": "Cc1ccc(NC(=O)NCCSc2ccc(C)cc2)cc1", "activation": "inactive: 0%"}, {"smiles": "CC(C)(C)c1ccc(C(=O)OCC(=O)N2CCC(c3ccccc3)=N2)cc1", "Potency": "inconclusive: 28.2 µM [activator, single point]"}, {"smiles": "CC1CCCCC1NC(=O)CN1C(=O)COc2ccccc21", "note": "(stereo unspecified)", "Potency": "inconclusive: 5.01 µM [activator, single point]"}, {"smiles": "N#C/C(=C\\c1ccc(-c2ccccc2)o1)C(=O)Nn1cnnc1", "Potency": "inconclusive: 5.01 µM [activator, partial curve, poor fit]"}, {"smiles": "Nc1cc(=O)[nH]c(SCC(=O)Nc2cc(Cl)ccc2Cl)n1", "Potency": "inconclusive: 28.2 µM [activator, single point]"}, {"smiles": "O=C(Nc1ccccc1N1CCOCC1)c1ccc2c(c1)OCCO2", "Potency": "inconclusive: 2.82 µM [activator, single point]"}, {"smiles": "COc1ccc(NC(=O)c2cc(S(=O)(=O)N3CCOCC3)cs2)cc1", "Potency": "inconclusive: 3.55 µM [activator, single point]"}, {"smiles": "N#Cc1c(-c2ccccc2)nc(SCC(=O)N2c3ccccc3Sc3ccccc32)[nH]c1=O", "activation": "inactive: 14.9%"}, {"smiles": "Cc1ccc(CNc2nc3ccccc3n2C)cc1", "activation": "inactive: 9.51%"}, {"smiles": "O=c1c2ccccc2c(C=Nc2cccc(S(=O)(=O)NC3=NCCCCC3)c2)c(O)n1Cc1ccccc1", "Potency": "inconclusive: 12.6 µM [activator, single point]"}, {"smiles": "N#Cc1cnn(-c2ncnc3sc(-c4ccccc4)cc23)c1N", "Potency": "inconclusive: 0.501 µM [activator, full curve, poor fit]"}, {"smiles": "Cn1c(=O)c(NC2CCCCC2)c2c3c(cccc31)C(=O)c1ccccc1-2", "activation": "inactive: -51%"}, {"smiles": "CC(=O)NCCc1nc2cc(NC(=O)c3cccc([N+](=O)[O-])c3)ccc2n1C", "activation": "inactive: -12.9%"}, {"smiles": "CC(C)(C)c1ccc(-c2nnc(SCC(=O)NC3CC3)o2)cc1", "Potency": "inconclusive: 5.01 µM [activator, single point]"}, {"smiles": "COC(=O)COc1ccc(S(=O)(=O)NCCC2=CCCCC2)cc1C", "activation": "inactive: -12.2%"}, {"smiles": "Cc1cc(C)c2nc(/N=C(\\N)NC(=O)c3ccccc3)nc(C)c2c1", "activation": "inactive: -2.42%"}, {"smiles": "CN(C(=O)c1cccc(NC(=O)Cc2cccc(NC(=O)C3CCCN(C(=O)C4CC4)C3)c2)c1)C1CC1", "note": "(stereo unspecified)", "activation": "inactive: 13.1%"}, {"smiles": "CSc1nc(C)c(C(=O)C[n+]2ccccc2)cc1C#N", "Potency": "inconclusive: 14.1 µM [activator, single point]"}, {"smiles": "COc1ccc(N2CC(C(=O)N3CCc4ccccc43)CC2=O)cc1", "note": "(stereo unspecified)", "activation": "inactive: -10.9%"}, {"smiles": "CCC(C)NC(=O)c1ccc(CS(=O)(=O)Cc2ccc(Cl)cc2)o1", "note": "(stereo unspecified)", "activation": "inconclusive: 46.1% [activator]"}, {"smiles": "CCc1ccc(-c2cc3c(=O)n(CC(=O)NCc4ccccc4F)ncn3n2)cc1", "Potency": "inconclusive: 10 µM [activator, single point]"}, {"smiles": "Cc1c(C(=O)N/N=C/c2ccoc2)cccc1[N+](=O)[O-]", "Potency": "inconclusive: 28.2 µM [activator, single point]"}, {"smiles": "O=C1CN(c2ccccc2F)C(=O)CN1c1ccccc1F", "activation": "inactive: 3.14%"}, {"smiles": "CC1=NC(=O)C(N=Nc2cccc(O)c2)N1c1ccccc1", "note": "(stereo unspecified)", "activation": "inactive: -20.5%"}, {"smiles": "Cn1c(-[n+]2c(-c3ccccc3)cc(-c3ccccc3)cc2-c2ccccc2)nc2c([N+](=O)[O-])cccc21", "Potency": "inconclusive: 2.82 µM [activator, partial curve, poor fit]"}, {"smiles": "CCc1ccc(-c2cn3c(n2)SCC3)cc1", "activation": "inconclusive: -13% [activator]"}, {"smiles": "CCN(CC1COc2ccccc2O1)C(=S)NC1CC2CCC1C2", "note": "(stereo unspecified)", "Potency": "inconclusive: 3.16 µM [activator, full curve]"}, {"smiles": "COc1ccc(CN(C)C(=O)Cc2ccc(S(=O)(=O)N3CCOCC3)s2)cc1OC", "Potency": "inconclusive: 5.01 µM [activator, single point]"}, {"smiles": "COC(=O)c1ccc(COc2cccc(C)c2C)cc1", "activation": "inactive: 7.3%"}, {"smiles": "COc1ccc(-c2cc(C(=O)Nc3c(C)n(C)n(-c4ccccc4)c3=O)c3ccccc3n2)c(OC)c1", "Potency": "inconclusive: 5.01 µM [activator, single point]"}, {"smiles": "Nc1nc(Nc2ccccc2F)nc(NCc2ccco2)c1[N+](=O)[O-]", "Potency": "inconclusive: 5.01 µM [activator, single point]"}, {"smiles": "COc1ccc([N+](=O)[O-])cc1NC(=O)c1cccnc1", "Potency": "inconclusive: 2.82 µM [activator, single point]"}, {"smiles": "O=C(C1=C[C@@H](c2ccc(Br)cc2)C[C@@H](OCCCCO)O1)N1CCN(Cc2ccc3c(c2)OCO3)CC1", "activation": "inactive: -24.5%"}, {"smiles": "COc1ccc(CN2CCN(C(=O)CCC(=O)Nc3nnc(C(F)(F)F)s3)CC2)cc1F", "Potency": "inconclusive: 0.447 µM [activator, full curve, poor fit]"}, {"smiles": "COc1ccc(S(=O)(=O)N2CCN(C(=O)C3CCC3)CC2)cc1", "Potency": "inconclusive: 6.31 µM [activator, partial curve]"}, {"smiles": "C=CCN1C(=O)/C(=C/c2ccc(OC(C)=O)c(OCC)c2[N+](=O)[O-])SC1=S", "activation": "inactive: -64%"}, {"smiles": "O=S(=O)(NCC(c1cccnc1)N1CCN(Cc2ccccc2)CC1)c1cc(F)ccc1F", "note": "(stereo unspecified)", "Potency": "inconclusive: 5.01 µM [activator, single point]"}, {"smiles": "COc1cc(N)c2ncccc2c1Br", "Potency": "inconclusive: 2.82 µM [activator, partial curve, poor fit]"}, {"smiles": "CCC(=O)Nc1ccccc1C(=O)OCC(=O)c1ccc2ccccc2c1", "activation": "inactive: 4.48% [at 7.66 µM]"}, {"smiles": "COc1ccc(N(CC(=O)Nc2ccccc2F)S(=O)(=O)c2ccc(C)c([N+](=O)[O-])c2)cc1", "Potency": "inconclusive: 28.2 µM [activator, single point]"}, {"smiles": "O=[N+]([O-])c1cc(Br)c(Nc2ccccc2)c([N+](=O)[O-])c1", "activation": "inactive: -67.7%"}, {"smiles": "CCOC(=O)c1ccc(N=C2SC(C(=O)NC)CC(=O)N2Cc2ccc(F)cc2)cc1", "note": "(stereo unspecified)", "Potency": "inconclusive: 28.2 µM [activator, single point]"}, {"smiles": "C=CCn1c(COc2ccccc2)nc2ccccc21", "Potency": "inconclusive: 2.82 µM [activator, single point]"}, {"smiles": "CN(CC(=O)NCCCn1ccnc1)S(=O)(=O)c1ccc(Cl)cc1", "Potency": "inconclusive: 10 µM [activator, single point]"}, {"smiles": "CCOc1ccc(NCc2nnc(SCc3ccc(Cl)cc3)n2-c2ccccc2)cc1", "Potency": "inconclusive: 10 µM [activator, partial curve, poor fit]"}, {"smiles": "Cc1cc(N2CCOCC2)n2nc(C(F)(F)F)c(-c3ccccc3)c2n1", "Potency": "inconclusive: 12.6 µM [activator, single point]"}, {"smiles": "CC(C)(C)n1nnnc1C(c1cccnc1)N1CCN(c2cccc(C(F)(F)F)c2)CC1", "note": "(stereo unspecified)", "Potency": "inconclusive: 0.501 µM [activator, full curve, poor fit]"}, {"smiles": "CCN(CC)CCNC(=O)C1c2cc(OC)c(OC)cc2C(=O)N2CCc3ccccc3C12", "note": "(stereo unspecified)", "activation": "inactive: 0%"}, {"smiles": "COCCNC(=S)N1CCN(S(=O)(=O)c2ccc(Cl)s2)CC1", "Potency": "inconclusive: 3.55 µM [activator, single point]"}, {"smiles": "Cc1ccc(C)c(NC(=S)NCc2ccccc2)c1", "activation": "inactive: 3.27%"}, {"smiles": "CCCCOc1cccc(C2C(C(=O)c3ccc(C)o3)=C(O)C(=O)N2c2nnc(C)s2)c1", "note": "(stereo unspecified)", "Potency": "inconclusive: 2 µM [activator, single point]"}, {"smiles": "Cc1ccc(CN2C(=O)CC(Nc3ccc(N4CCOCC4)cc3)C2=O)cc1", "note": "(stereo unspecified)", "Potency": "inconclusive: 15.8 µM [activator, single point]"}, {"smiles": "Cc1ccnc(NS(=O)(=O)c2ccc(NC(=O)c3ccc(S(=O)(=O)N(C)C)cc3)cc2)n1", "Potency": "inconclusive: 28.2 µM [activator, single point]"}, {"smiles": "COc1ccc(CNC(=O)CN2C(=O)CSc3ccc(S(=O)(=O)N4CCCCC4)cc32)cc1", "activation": "inactive: 0%"}, {"smiles": "Cc1ccc(C)c(CSc2nnc([C@@H](N)C(C)C)o2)c1", "Potency": "inconclusive: 2.24 µM [activator, partial curve, poor fit]"}, {"smiles": "O=c1c(C/C=C/c2ccccc2)c(O)ccn1Cc1ccc(Cl)cc1Cl", "Potency": "inconclusive: 5.01 µM [activator, single point]"}, {"smiles": "COC(=O)c1ccc(Cn2nc(-c3ccc(C)cc3)ccc2=O)cc1", "Potency": "inconclusive: 8.91 µM [activator, single point]"}, {"smiles": "CC1CCN(C(=O)C2CCN(c3ncnc4c3nc3n4CCCCC3)CC2)CC1", "Potency": "inconclusive: 5.01 µM [activator, single point]"}, {"smiles": "CC(C)Sc1nc(N)nc(-c2cccs2)c1C#N", "activation": "inactive: -23.6%"}, {"smiles": "CCOc1ccccc1NC(=O)NNC(=O)CCc1ccc(OC)cc1", "Potency": "inconclusive: 5.01 µM [activator, single point]"}, {"smiles": "CN(CCCCCCCCC(=O)/C=N/O)Cc1ccccc1", "activation": "inactive: -4.59%"}, {"smiles": "CCCCCCCCn1cnc2c(N)c(C)c(C)cc21", "activation": "inactive: -19.6% [at 7.66 µM]"}, {"smiles": "N#Cc1cccc(NCC(=O)Nc2cccc(S(=O)(=O)N3CCCCC3)c2)c1", "Potency": "inconclusive: 3.55 µM [activator, single point]"}, {"smiles": "COc1cc(/C=C/C(=O)OCC(=O)Nc2ccc3c(c2)OCCO3)ccc1O", "activation": "inactive: -20.5%"}, {"smiles": "COc1ccc(/C(C)=N/NC(=S)Nc2cc(C)ccc2C)cc1", "activation": "inactive: 6.34%"}, {"smiles": "Cc1ccc(-c2nc3ccsc3c(=O)o2)cc1", "activation": "inactive: -7.87%"}, {"smiles": "CCn1c(=O)c(C(=O)Nc2ccc(C)cc2C)c(O)c2ccccc21", "Potency": "inconclusive: 5.01 µM [activator, single point]"}, {"smiles": "Cc1nc(-c2coc3cc(OCC(=O)O)ccc3c2=O)cs1", "activation": "inactive: 2.53%"}, {"smiles": "CC/C(=N\\NC(=O)c1nnn(-c2nonc2N)c1CN(C)c1ccccc1)c1ccccc1", "Potency": "inconclusive: 0.501 µM [activator, partial curve, poor fit]"}, {"smiles": "CC1CCCN(C(C(=O)NC2CCCCC2)c2cc3c(cc2[N+](=O)[O-])OCO3)C1", "note": "(stereo unspecified)", "activation": "inactive: 0.315%"}, {"smiles": "CCS(=O)(=O)c1ccc2oc(Nc3cccc(OC)c3)nc2c1", "Potency": "inconclusive: 3.16 µM [activator, single point]"}]}]}
